# Article doi:10.1101/2025.01.22.634223
# The chains behind the UniProt entries cited, without tags or fusion partners. Where a name states a change or a piece, a line headed by the entry shows the natural chain unless it says otherwise.
# UniProt Q23146: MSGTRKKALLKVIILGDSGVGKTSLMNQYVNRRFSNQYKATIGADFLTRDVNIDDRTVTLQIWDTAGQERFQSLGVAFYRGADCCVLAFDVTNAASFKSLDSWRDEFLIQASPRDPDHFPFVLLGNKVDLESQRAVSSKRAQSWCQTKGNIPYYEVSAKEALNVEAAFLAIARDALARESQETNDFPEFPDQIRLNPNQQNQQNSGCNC
# Target: GST::RAB-7 (C. elegans) (UniProt Q23146)
# Assay: pull-down
substance,measurement,value
6HIS::MYC::RAB-1::6HIS (from UniProt Q9UAQ6),binding,binds

# These are yes or no findings as the source states them, for the method shown. Binding calls can cover weak binding; strength is not graded here.
